Experimental data: PubChem BioAssay AID743454 (Peter MacCallum Cancer Centre, 2014)

Test: 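Search for knock-downs that restore vorinostat killing in resistant colon cancer cells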 (primary screen)
System: human HCT116-VR colon cancer cells, selected for vorinostat resistance
Knock-down reagent: siRNA pool against human genes, 40 nM siRNA pool
Time to read-out: vorinostat for 24 h, read-out about 72 h after transfection
Conditions: vorinostat at 2.5 µM final
Measurement: 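Cell viability by CellTiter-Fluor and caspase 3/7 activity by luminescence, each scaled to mock wells per plate, duplicates averaged, then robust z-scored over all plates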
Scale: viability robust z-score: higher = more viable cells than screen typical; caspase robust z-score: higher = more caspase 3/7 activity than screen typical
Rule for the call: 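Hits are knock-downs in viability class RV1/RV2 or caspase class CA1/CA2, excluding ones that killed cells in the no-drug cell-count arm; hits then retested with single siRNAs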
In all, the deposit lists about 18,000 reagents; below is an unselected part. Over the whole deposit, 450 (2.5%) are marked active. 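Single biological run; no consistent viability z cut-off exists, so the class columns, not z-scores, define the calls.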 A number with no mark means an inactive call.

Silencing of TBX21 (GeneID 30009) resulted in: viability hit class no change; caspase hit class no change; viability robust z-score -1.16; caspase robust z-score 0.89. After knock-down of NRG3 (GeneID 10718), the screen gave viability hit class no change; caspase hit class no change; viability robust z-score 0.66; caspase robust z-score -0.77. Depletion of ZSCAN29 (GeneID 146050) came out at: viability hit class no change; caspase hit class no change; viability robust z-score 0.6; caspase robust z-score -0.72. Against BEST1 (GeneID 7439), the entry reads viability hit class no change; caspase hit class no change; viability robust z-score -0.16; caspase robust z-score -0.54. NEU2 (GeneID 4759) showed viability hit class no change; caspase hit class no change; viability robust z-score 0.76; caspase robust z-score -0.38. Depletion of SLC22A2 (GeneID 6582) came out at: viability hit class no change; caspase hit class no change; viability robust z-score 0.55; caspase robust z-score -0.3.

Against TMEM26 (GeneID 219623) the deposit lists viability hit class no change; caspase hit class no change; viability robust z-score 0.28; caspase robust z-score 1.57.

Targets above whose target name begins with N or n:
NRG3 (GeneID 10718) | viability hit class = no change; caspase hit class = no change; viability robust z-score = 0.66; caspase robust z-score = -0.77
NEU2 (GeneID 4759) | viability hit class = no change; caspase hit class = no change; viability robust z-score = 0.76; caspase robust z-score = -0.38

Next entries follow:
RANBP17 (GeneID 64901) showed viability hit class no change; caspase hit class no change; viability robust z-score -0.04; caspase robust z-score -0.62. Knock-down of RABL2A (GeneID 11159) came out at: viability hit class no change; caspase hit class no change; viability robust z-score -0.74; caspase robust z-score 0.58. After knock-down of LIPF (GeneID 8513), the screen gave viability hit class no change; caspase hit class no change; viability robust z-score 0.74; caspase robust z-score -0.84. With knock-down of TMEM123 (GeneID 114908), the screen gave viability hit class no change; caspase hit class no change; viability robust z-score -0.12; caspase robust z-score -0.94. Silencing of PROSER1 (GeneID 80209) gave: viability hit class no change; caspase hit class no change; viability robust z-score -2.42; caspase robust z-score 1.08. CD244 (GeneID 51744) gave viability hit class no change; caspase hit class no change; viability robust z-score 0.48; caspase robust z-score 0.67.

Knock-down of LHFPL5 (GeneID 222662) resulted in: viability hit class no change; caspase hit class no change; viability robust z-score 0.26; caspase robust z-score -0.5. Against LRIG3 (GeneID 121227), the entry reads viability hit class no change; caspase hit class no change; viability robust z-score 0.39; caspase robust z-score 0.43. With knock-down of OBSL1 (GeneID 23363), the screen gave viability hit class no change; caspase hit class no change; viability robust z-score -1.12; caspase robust z-score 3.29. With knock-down of VPS13C (GeneID 54832), the screen gave viability hit class no change; caspase hit class no change; viability robust z-score -0.06; caspase robust z-score -0.82. PSMA6 (GeneID 5687) gave viability hit class no change; caspase hit class no change; viability robust z-score -5.32; caspase robust z-score 3.92. Against AMDHD2 (GeneID 51005), the values are viability hit class no change (active); caspase hit class CA1 (caspase activation); viability robust z-score 0.46; caspase robust z-score 6.67.

With knock-down of GHRL (GeneID 51738), the record shows viability hit class no change; caspase hit class no change; viability robust z-score -0.26; caspase robust z-score 1.53. TMEM109 (GeneID 79073) gave viability hit class no change; caspase hit class no change; viability robust z-score 0.56; caspase robust z-score -0.28.
